# Measurements reported in patent US12527270B2, “Promoting regeneration and transformation in plants” (KWS SAAT SE & CO. KGAA, priority 2020, dated 2026).
# At least one compound was matched to its structure with a doubt left.
# Test system: Beta vulgaris calli
# Assay: DEX-inducible 35S-BnBBM-GR: shoot formation and callus-based transformation efficiency
# Assay type: cell-based, Beta vulgaris (sugar beet)
# Protocol: By applying the following method callus for Beta vulgaris (sugar beet) has been induced: Micropropagated shoots were used as starting material. Shoots were multiplied in medium containing MS salts, 30 g/l sucrose, 0.25 mg/l benzyladenine (BAP) and 10 g/l agar (pH 6.0). To induce friable callus, leaf explants were incubated for 7-8 weeks in media having MS salts, 15 g/l sucrose, 2 mg/l BAP, and 8 g/l agar (pH 6.0).
# For Agrobacterium-mediated transformation friable calli were mounted in media containing MS salts, 30 g/l sucrose, 1 mg/l GA3, 1 mg/l TDZ, and 10 g/l agar (pH 6.0) and kept for 1 week in the dark at 24° C. Agrobacterium harbouring the vector of IPR232-pS-01 (FIG. 12) was grown in medium containing 5 g/l tryptone, 2.5 g/l yeast extract, 1 g/l NaCl, 5 g/l mannitol, 0.1 g/l MgSO4×7H2O, 0.25 g/l KH2PO4, 1 g/l glutamic acid (pH 7.0) supplemented with the appropriate antibiotics, at 28° C., for 24 h. […]
# For quantification of transformation rate a) the inducible BnBBM system based on DEX/GR as described above as well as a constitutive overexpression of BnBBM have been tested on an amenable genotype and a recalcitrant genotype. […]
structure (smiles),measurement,setting,value
"C[C@@H]1C[C@H]2[C@@H]3CCC4=CC(=O)C=C[C@]4(C)[C@@]3(F)[C@@H](O)C[C@]2(C)[C@@]1(O)C(=O)CO [DEX, dexamethasone]",shoot formation from callus,"35S-BnBBM-GR calli, 1 μM DEX versus without DEX",many shoots were formed from callus
same,increase in transformation efficiency,"BnBBM-GR with DEX-induction, amenable and recalcitrant genotype",seven to eight fold increase
